# In publication PMC9537338:
# By UniProt entry, the sequences of proteins in these tests, tags left out.
# UniProt Q13485: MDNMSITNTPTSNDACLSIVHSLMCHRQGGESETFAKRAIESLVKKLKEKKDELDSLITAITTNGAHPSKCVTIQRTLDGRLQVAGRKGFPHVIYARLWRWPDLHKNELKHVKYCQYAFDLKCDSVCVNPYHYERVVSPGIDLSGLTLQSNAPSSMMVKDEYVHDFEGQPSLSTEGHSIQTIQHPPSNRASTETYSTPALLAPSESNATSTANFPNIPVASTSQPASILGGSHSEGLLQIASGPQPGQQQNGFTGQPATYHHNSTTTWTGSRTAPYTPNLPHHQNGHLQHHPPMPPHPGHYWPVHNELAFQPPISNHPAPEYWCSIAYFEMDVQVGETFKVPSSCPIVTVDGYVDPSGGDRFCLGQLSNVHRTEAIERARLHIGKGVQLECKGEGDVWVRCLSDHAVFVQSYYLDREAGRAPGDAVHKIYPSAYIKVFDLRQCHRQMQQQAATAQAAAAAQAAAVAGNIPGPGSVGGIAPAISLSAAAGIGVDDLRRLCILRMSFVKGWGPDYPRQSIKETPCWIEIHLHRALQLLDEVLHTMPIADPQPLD
# UniProt Q15797: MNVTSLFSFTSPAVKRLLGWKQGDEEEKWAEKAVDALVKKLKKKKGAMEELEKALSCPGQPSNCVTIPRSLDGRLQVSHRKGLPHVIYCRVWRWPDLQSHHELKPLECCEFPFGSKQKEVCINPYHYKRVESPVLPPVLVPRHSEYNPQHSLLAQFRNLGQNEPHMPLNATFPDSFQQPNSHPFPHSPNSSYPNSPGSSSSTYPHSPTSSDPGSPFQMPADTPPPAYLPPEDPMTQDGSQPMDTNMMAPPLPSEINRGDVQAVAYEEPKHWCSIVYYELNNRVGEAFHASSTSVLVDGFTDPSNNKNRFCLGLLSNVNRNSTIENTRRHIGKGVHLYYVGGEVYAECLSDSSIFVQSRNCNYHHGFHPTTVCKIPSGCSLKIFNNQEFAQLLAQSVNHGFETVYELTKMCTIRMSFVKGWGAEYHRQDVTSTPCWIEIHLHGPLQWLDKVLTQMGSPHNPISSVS
# UniProt Q99717: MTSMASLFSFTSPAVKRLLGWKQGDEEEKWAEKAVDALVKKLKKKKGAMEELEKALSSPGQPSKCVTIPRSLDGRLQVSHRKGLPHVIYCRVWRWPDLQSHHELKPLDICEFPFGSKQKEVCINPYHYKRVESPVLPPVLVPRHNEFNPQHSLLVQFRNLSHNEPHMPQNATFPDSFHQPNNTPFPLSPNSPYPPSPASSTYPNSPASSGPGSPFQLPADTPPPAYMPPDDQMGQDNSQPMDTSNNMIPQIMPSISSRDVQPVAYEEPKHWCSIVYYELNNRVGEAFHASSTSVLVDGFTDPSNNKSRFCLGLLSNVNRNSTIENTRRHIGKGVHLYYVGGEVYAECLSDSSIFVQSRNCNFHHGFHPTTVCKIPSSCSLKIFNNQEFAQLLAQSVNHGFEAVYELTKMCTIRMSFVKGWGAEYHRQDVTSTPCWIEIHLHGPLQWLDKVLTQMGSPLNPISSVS
# Results are given in words; binding and its absence hold for the method and conditions named. Binding seen in cells or lysates may run through a third protein. Some results given as binding are weak or reduced against the parent protein; the word gives no strength.
# Biological target: SMAD4 (human (endogenous in HUVEC)) (UniProt Q13485)
# Assay: co-IP; SMAD4 complexes isolated with the Pierce Co-Immunoprecipitation Kit from HUVEC-FUCCI sorted into early G1 or late G1 and treated with control, TGF-β1 (1 ng/mL) or BMP4 (5 ng/mL) for 2 h; Western blot for SMAD proteins
row,binding,Substance
1,binds,SMAD1 (from UniProt Q15797 1-465)
2,binds,SMAD5 (from UniProt Q99717 1-465)
